We go through 68 variants from the supplement of paper PMC7125110.

± gives the standard error. Many of these values have a large error.

First the molecules themselves.
B1: glmS ribozyme (parent)
chain: AUAAAAGCGCCAGAACUACAGAAAUGUAGUUGACGAGGAGGAGGUUUAUCGAAUUUUCGGCGGAUGCCUCCAAA

One data set covers variants of B1. Kind of data set: KM; higher = weaker cofactor use; RNA array. The following applies: with glucosamine-6-phosphate. Summed up: (§1)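 kobs was derived by fitting per-tile medians to one- or two-exponential decays after normalising signals to baseline and to non-cleaving reference variants. Those signals came from barcoded ribozyme variants transcribed in situ by E. coli RNA polymerase on sequenced MiSeq chips, followed through a hybridised Cy3 probe at 37 °C and imaged over ~14 h. Glucosamine-6-phosphate (40 μM to 10 mM) in HEPES/KCl/Mg(OAc)2 buffer was flowed in. Weighted Michaelis–Menten fits across concentrations then gave kcat and KM.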
The term KM denotes the substrate concentration at which the rate is half of its maximum. As for A12G G40U, the KM was determined as 3740 ± 350 µM.

Take G29C A53G: the KM was 2630 ± 900 µM.

Consider G29U U54A, for which the Michaelis constant (KM) turned out to be 2360 ± 1100 µM.

On to C16A C71A, for which the Michaelis constant (KM) amounted to 450 ± 260 µM.

As to A12U C67A, the Michaelis-Menten constant (KM) amounted to 97.1 ± 83 µM.

As for A39G C71A, the KM was 724 ± 580 µM.

For U45C A53U U69C, the KM came to 2200 ± 1600 µM.

In the case of A6U C11G, the Michaelis-Menten constant (KM) amounted to 1370 ± 460 µM.

Turning to A39U A64C, the KM is 3410 ± 1100 µM.

Turning to A12G G32U C70U, the KM is 1760 ± 1300 µM.

As for A14G C16G, the Michaelis-Menten constant (KM) is 536 ± 270 µM.

For C11A U49A, the KM is 15.3 ± 9.8 µM.

As to C11U A12U U56C, the Michaelis constant (KM) was found to be 2120 ± 1200 µM.

Take A12C G29U: the KM came out at 2270 ± 1400 µM.

Turning to G40A U47G, the Michaelis constant (KM) was determined as 3210 ± 2600 µM.

Regarding G29U C71U, the Michaelis constant (KM) was 1570 ± 1100 µM.

With A12C G44A A53U, the KM turned out to be 4570 ± 530 µM.

For the variant U54A C67U, the KM is 3580 ± 2800 µM.

Turning to A6U G41U, the KM was found to be 18900 ± 1800 µM.

Regarding G29U A53G C67G, the Michaelis constant (KM) amounted to 149 ± 90 µM.

For the variant A14C C71U, the KM stood at 5340 ± 4100 µM.

As for A12C C58U, the KM was 6360 ± 1200 µM.

Take G9U C11A: the Michaelis constant (KM) stood at 159 ± 62 µM.

In the case of C11A U30A C50U, the KM stood at 121 ± 99 µM.

As for A6U A53U, the KM stood at 2570 ± 1100 µM.

With G29C U56A, the KM is 9740 ± 8800 µM.

Turning to A15G G51U C71A, the Michaelis constant (KM) came to 510 ± 210 µM.

As for A15C G66A, the KM is 5060 ± 3700 µM.

On to A12G G41U, for which the KM was 10300 ± 930 µM.

For C16U U55G, the Michaelis constant (KM) turned out to be 904 ± 790 µM.

A12G A15G: the KM was found to be 4550 ± 1800 µM.

As for C16U C67U, the KM amounted to 663 ± 620 µM.

Turning to G7U G37C, the Michaelis constant (KM) stood at 232 ± 120 µM.

Regarding C11U U56A, the Michaelis constant (KM) is 1910 ± 580 µM.

As to C10G A15U, the Michaelis-Menten constant (KM) came to 26 ± 19 µM.

As for A53C G66U, the Michaelis-Menten constant (KM) is 1770 ± 450 µM.

For C11G A33U U54G C67A C71U, the Michaelis-Menten constant (KM) came to 232 ± 220 µM.

Turning to A39U C70U, the KM worked out at 384 ± 290 µM.

In the case of C11A U31G, the Michaelis constant (KM) was determined as 3900 ± 1600 µM.

For A15C U30G, the Michaelis-Menten constant (KM) was 1010 ± 800 µM.

With G41U A42C, the KM was 2750 ± 590 µM.

For the variant C11U C61U, the Michaelis constant (KM) turned out to be 122 ± 8.2 µM.

With U46G A53U, the KM came out at 2190 ± 770 µM.

The variants in a further data set derive from B1. Briefly: kcat; higher = faster cleavage; RNA array. The following applies: with glucosamine-6-phosphate. The method in brief: as §1
As usually defined, the kcat is the number of substrate molecules converted per active site and unit of time at saturation. Turning to A48G G59A, the kcat was found to be 5.08e-05 ± 1.8e-05 s⁻¹.

As to G29C A53G, the catalytic constant (kcat) turned out to be 0.00235 ± 0.00053 s⁻¹.

In the case of A6C C50A U55G, the kcat is under 1e-05 s⁻¹.

For the variant A33G G35U, the turnover number (kcat) is under 1e-05 s⁻¹.

In the case of G29U U54A, the turnover number (kcat) was determined as 0.00792 ± 0.0027 s⁻¹.

On to C16A C71A, for which the catalytic constant (kcat) came out at 0.000128 ± 2e-05 s⁻¹.

Consider A12U C67A, for which the kcat is 0.00241 ± 0.0012 s⁻¹.

On to A39G C71A, for which the kcat came to 0.00428 ± 0.0022 s⁻¹.

Turning to A39G U47G, the kcat worked out at 0.00329 ± 0.0028 s⁻¹.

In the case of U45C A53U U69C, the kcat came out at 0.00154 ± 0.00089 s⁻¹.

Regarding G32C A33G, the catalytic constant (kcat) was under 1e-05 s⁻¹.

As to C67U C68U C71G, the kcat worked out at 3.63e-05 ± 2.4e-05 s⁻¹.

As to G7U U55G, the turnover number (kcat) amounted to 1.75e-05 ± 1.2e-05 s⁻¹.

In the case of A39U A64C, the catalytic constant (kcat) worked out at 0.000269 ± 4.6e-05 s⁻¹.

A15G G62U: the kcat amounted to 2.65e-05 ± 2.3e-05 s⁻¹.

On to A39G G44A, for which the turnover number (kcat) was found to be 0.00175 ± 0.0015 s⁻¹.

On to U31C G37A, for which the kcat amounted to 0.000734 ± 0.00058 s⁻¹.

U31C G59U: the catalytic constant (kcat) is under 1e-05 s⁻¹.

On to A14G C16G, for which the catalytic constant (kcat) came to 0.0069 ± 0.0022 s⁻¹.

Regarding A12C G29U, the catalytic constant (kcat) is 0.0106 ± 0.0057 s⁻¹.

Take G38C C50A: the kcat was determined as 1.31e-05 ± 7.7e-06 s⁻¹.

As to U47G C61A, the kcat was determined as 1.29e-05 ± 9.1e-06 s⁻¹.

Turning to G13U G51A, the kcat is under 1e-05 s⁻¹.

As for G40A U47G, the kcat came out at 0.00264 ± 0.0015 s⁻¹.

As for G29U C71A, the catalytic constant (kcat) is 0.00136 ± 0.00094 s⁻¹.

As to G29U C71U, the catalytic constant (kcat) amounted to 0.00336 ± 0.0018 s⁻¹.

U54A C67U: the kcat stood at 0.00845 ± 0.0047 s⁻¹.

As to U47A C61A C70G C71U, the kcat was determined as 1.64e-05 ± 4.7e-06 s⁻¹.

On to G29U A53G C67G, for which the turnover number (kcat) amounted to 0.000147 ± 2.6e-05 s⁻¹.

Take A14C C71U: the kcat worked out at 0.0115 ± 0.0076 s⁻¹.

For A6G A33U C58G C67U C71A, the kcat was 5.76e-05 ± 3.1e-05 s⁻¹.

With A6U A53U, the turnover number (kcat) stood at 0.000209 ± 3.5e-05 s⁻¹.

As to G29C U56A, the catalytic constant (kcat) was 0.0026 ± 0.0017 s⁻¹.

For the variant A15G G51U C71A, the catalytic constant (kcat) amounted to 1.45e-05 ± 1.7e-06 s⁻¹.

In the case of A15C G66A, the kcat was determined as 0.00737 ± 0.0042 s⁻¹.

For U54G U55G, the catalytic constant (kcat) worked out at 0.0144 ± 0.014 s⁻¹.

Consider G9U U45A, for which the kcat was under 1e-05 s⁻¹.

For C16U U55G, the catalytic constant (kcat) was found to be 0.00893 ± 0.0059 s⁻¹.

In the case of C50G G51A G59U C70G, the kcat is 0.000102 ± 2.5e-05 s⁻¹.

In the case of C16U C67U, the kcat came to 0.00415 ± 0.0027 s⁻¹.

For A12C C50A, the kcat was found to be 3.92e-05 ± 2.4e-05 s⁻¹.

For C11U U56A, the turnover number (kcat) came out at 0.00124 ± 0.00023 s⁻¹.

On to U31G G66A, for which the kcat is 0.00309 ± 0.0023 s⁻¹.

As for A53C G66U, the kcat is 0.000484 ± 6.4e-05 s⁻¹.

Consider C16U A33C, for which the turnover number (kcat) amounted to 0.000455 ± 0.0003 s⁻¹.

Take A39U C70U: the kcat came out at 0.00771 ± 0.0044 s⁻¹.

As to A6U A15C A48U U69G, the kcat came to 2.37e-05 ± 7.1e-06 s⁻¹.

As for A15C U30G, the kcat is 0.0526 ± 0.032 s⁻¹.

For G41U A42C, the turnover number (kcat) is 1.89e-05 ± 1.4e-06 s⁻¹.

Consider C11U C61U, for which the kcat is under 1e-05 s⁻¹.

For the variant U47G U57G, the catalytic constant (kcat) worked out at 6.2e-05 ± 9.2e-06 s⁻¹.

For the variant U46G A53U, the kcat was found to be 0.006 ± 0.0013 s⁻¹.

The variants in a further data set derive from B1. Briefly: self-cleavage kobs at 10000 uM GlcN6P; higher = faster cleavage; RNA array. The following applies: with glucosamine-6-phosphate. The method in brief: as §1
As for A48G G59A, the “self-cleavage kobs at 10000 uM GlcN6P” value was 3.55e-05 ± 1.9e-05 s⁻¹.

As to A6U G41U, the “self-cleavage kobs at 10000 uM GlcN6P” value was 1.7e-05 ± 1.2e-05 s⁻¹.

Regarding A6G A33U C58G C67U C71A, the “self-cleavage kobs at 10000 uM GlcN6P” value was 3.03e-05 ± 1.9e-05 s⁻¹.

A12C C50A: the “self-cleavage kobs at 10000 uM GlcN6P” value was 1.78e-05 ± 1.2e-05 s⁻¹.

For G41U A42C, the “self-cleavage kobs at 10000 uM GlcN6P” value was 1.48e-05 ± 1.1e-05 s⁻¹.

The variants in a further data set derive from B1. Briefly: self-cleavage kobs at 160 uM GlcN6P; higher = faster cleavage; RNA array. The note with it: with glucosamine-6-phosphate. Summed up: as §1
As for A39G G44A, the “self-cleavage kobs at 160 uM GlcN6P” value was 2.76e-05 ± 1.8e-05 s⁻¹.

Take G29U C71A: the “self-cleavage kobs at 160 uM GlcN6P” value stood at 0.000152 ± 8.4e-05 s⁻¹.

For C11A U31G, the “self-cleavage kobs at 160 uM GlcN6P” value was determined as 2.82e-05 ± 1.6e-05 s⁻¹.

On to A6U A15C A48U U69G, for which the “self-cleavage kobs at 160 uM GlcN6P” value was determined as 2.31e-05 ± 1.8e-05 s⁻¹.

Variants of B1 are the subject of the next data set. Briefly: self-cleavage kobs at 640 uM GlcN6P; higher = faster cleavage; RNA array. The following applies: with glucosamine-6-phosphate. The method in brief:
as §1
As to A6U A53U, the “self-cleavage kobs at 640 uM GlcN6P” value is 2.37e-05 ± 1.8e-05 s⁻¹.

In a further data set the parent is B1. Kind of data set: self-cleavage kobs at 40 uM GlcN6P; higher = faster cleavage; RNA array. The following applies: with glucosamine-6-phosphate. Summed up: as §1
As to C50G G51A G59U C70G, the “self-cleavage kobs at 40 uM GlcN6P” value was 2.96e-05 ± 2.1e-05 s⁻¹.

For A53C G66U, the “self-cleavage kobs at 40 uM GlcN6P” value amounted to 1.68e-05 ± 1.2e-05 s⁻¹.

A further data set covers variants of B1. Kind of data set: self-cleavage kobs at 2500 uM GlcN6P; higher = faster cleavage; RNA array. The following applies: with glucosamine-6-phosphate. The method in brief:
as §1
Consider A6U A15C A48U U69G, for which the “self-cleavage kobs at 2500 uM GlcN6P” value is 3.55e-05 ± 2.6e-05 s⁻¹.
